Measured values taken from patent US20160031951A1.
These are yes or no findings as the source states them, for the method shown. Some binding calls cover weakened binding; strength is not graded here.

Chains of the proteins cited; added tags and fusions are not shown. Residues count along the entry.
UniProt O95477: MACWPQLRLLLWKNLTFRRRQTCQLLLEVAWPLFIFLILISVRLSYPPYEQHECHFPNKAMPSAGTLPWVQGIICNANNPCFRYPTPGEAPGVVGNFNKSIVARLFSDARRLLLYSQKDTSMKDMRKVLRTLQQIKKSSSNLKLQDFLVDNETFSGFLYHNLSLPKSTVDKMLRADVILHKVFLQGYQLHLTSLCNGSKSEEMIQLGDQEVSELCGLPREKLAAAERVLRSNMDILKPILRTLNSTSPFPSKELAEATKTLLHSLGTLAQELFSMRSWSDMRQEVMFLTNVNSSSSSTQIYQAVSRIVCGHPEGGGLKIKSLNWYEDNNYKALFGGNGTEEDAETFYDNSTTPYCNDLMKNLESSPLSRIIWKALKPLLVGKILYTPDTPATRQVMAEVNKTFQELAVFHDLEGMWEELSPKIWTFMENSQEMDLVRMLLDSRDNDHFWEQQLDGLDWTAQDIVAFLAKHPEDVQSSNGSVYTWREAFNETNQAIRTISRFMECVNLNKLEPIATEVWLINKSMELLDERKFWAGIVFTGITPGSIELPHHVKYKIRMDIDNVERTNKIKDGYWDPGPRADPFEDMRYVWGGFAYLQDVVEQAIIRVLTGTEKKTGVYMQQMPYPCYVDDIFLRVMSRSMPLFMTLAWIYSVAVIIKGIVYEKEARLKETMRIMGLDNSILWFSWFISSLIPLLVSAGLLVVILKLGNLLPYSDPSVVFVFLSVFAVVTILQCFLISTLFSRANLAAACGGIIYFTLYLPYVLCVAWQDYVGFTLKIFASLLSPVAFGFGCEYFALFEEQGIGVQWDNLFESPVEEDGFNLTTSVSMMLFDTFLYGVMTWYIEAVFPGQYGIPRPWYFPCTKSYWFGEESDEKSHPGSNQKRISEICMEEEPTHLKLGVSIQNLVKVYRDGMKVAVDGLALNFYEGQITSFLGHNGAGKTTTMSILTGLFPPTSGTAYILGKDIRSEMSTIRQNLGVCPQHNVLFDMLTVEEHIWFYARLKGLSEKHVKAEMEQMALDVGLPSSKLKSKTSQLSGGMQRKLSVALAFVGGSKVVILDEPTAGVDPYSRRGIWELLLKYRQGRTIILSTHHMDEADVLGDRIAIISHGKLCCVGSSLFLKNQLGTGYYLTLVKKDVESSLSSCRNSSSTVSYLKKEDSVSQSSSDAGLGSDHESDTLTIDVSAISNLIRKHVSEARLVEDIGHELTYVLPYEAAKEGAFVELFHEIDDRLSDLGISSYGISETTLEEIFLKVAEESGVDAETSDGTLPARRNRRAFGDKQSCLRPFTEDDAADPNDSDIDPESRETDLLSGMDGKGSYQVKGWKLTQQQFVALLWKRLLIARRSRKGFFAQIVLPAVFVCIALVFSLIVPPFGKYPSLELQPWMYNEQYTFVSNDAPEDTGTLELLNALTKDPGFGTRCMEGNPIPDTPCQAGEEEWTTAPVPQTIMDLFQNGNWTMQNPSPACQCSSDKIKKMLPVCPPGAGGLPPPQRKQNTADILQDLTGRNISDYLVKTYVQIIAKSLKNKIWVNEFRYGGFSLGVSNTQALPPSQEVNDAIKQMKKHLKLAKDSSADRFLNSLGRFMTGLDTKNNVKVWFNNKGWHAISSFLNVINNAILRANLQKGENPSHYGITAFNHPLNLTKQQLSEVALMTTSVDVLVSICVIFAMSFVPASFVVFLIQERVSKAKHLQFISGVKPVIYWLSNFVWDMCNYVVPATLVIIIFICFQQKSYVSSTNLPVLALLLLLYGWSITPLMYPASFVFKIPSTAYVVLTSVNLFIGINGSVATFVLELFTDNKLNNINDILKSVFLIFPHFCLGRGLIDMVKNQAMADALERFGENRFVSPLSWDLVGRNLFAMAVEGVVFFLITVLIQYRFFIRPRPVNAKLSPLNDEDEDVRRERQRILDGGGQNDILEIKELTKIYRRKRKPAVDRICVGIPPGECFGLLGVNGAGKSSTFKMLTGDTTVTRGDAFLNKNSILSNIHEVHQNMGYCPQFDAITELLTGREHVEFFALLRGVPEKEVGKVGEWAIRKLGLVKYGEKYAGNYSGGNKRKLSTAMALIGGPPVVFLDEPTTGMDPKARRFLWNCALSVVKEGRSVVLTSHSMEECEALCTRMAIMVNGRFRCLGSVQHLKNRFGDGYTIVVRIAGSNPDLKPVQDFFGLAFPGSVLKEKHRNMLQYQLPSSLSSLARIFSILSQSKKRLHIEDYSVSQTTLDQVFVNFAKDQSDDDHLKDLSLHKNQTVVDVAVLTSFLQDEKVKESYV
UniProt P02647, residues 25-267: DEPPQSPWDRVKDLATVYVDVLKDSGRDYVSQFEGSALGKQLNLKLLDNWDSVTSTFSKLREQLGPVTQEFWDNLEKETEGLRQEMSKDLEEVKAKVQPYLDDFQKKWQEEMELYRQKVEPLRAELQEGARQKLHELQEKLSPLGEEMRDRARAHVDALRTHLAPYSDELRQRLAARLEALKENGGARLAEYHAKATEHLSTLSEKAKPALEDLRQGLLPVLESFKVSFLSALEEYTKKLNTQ

Biological target: ABCA1 on BHK cells stably transfected with ABCA1 (UniProt O95477)
Experiment: crosslinking assay and western blot with antibodies to peptide or apoA-I; BHK cells stably transfected with ABCA1

## apolipoprotein A-I (from UniProt P02647 25-267) (ligand)
  binding: binds
